{"sequences": {"note": "The chains behind the UniProt entries cited, without tags or fusion partners.", "UniProt P97814": "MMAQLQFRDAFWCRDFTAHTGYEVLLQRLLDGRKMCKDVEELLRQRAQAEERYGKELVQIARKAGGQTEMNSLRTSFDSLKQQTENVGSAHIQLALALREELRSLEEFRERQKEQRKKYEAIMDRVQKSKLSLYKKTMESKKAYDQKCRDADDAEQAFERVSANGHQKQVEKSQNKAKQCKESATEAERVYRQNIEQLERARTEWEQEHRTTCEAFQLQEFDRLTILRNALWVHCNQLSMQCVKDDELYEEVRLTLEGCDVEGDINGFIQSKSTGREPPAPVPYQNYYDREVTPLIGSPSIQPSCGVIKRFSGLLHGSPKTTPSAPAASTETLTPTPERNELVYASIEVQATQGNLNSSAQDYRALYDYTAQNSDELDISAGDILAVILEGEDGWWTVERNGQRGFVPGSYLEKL"}, "source": "paper PMC5070766", "molecules": {"B1": {"name": "Pl(3,4,5)P3 5-phosphatase 1 (enzyme, UniProt Q9ES52 1-1191)", "chain": "MPAMVPGWNHGNITRSKAEELLSRAGKDGSFLVRASESIPRAYALCVLFRNCVYTYRILPNEDDKFTVQASEGVPMRFFTKLDQLIDFYKKENMGLVTHLQYPVPLEEEDAIDEAEEDTVESVMSPPELPPRNIPMSAGPSEAKDLPLATENPRAPEVTRLSLSETLFQRLQSMDTSGLPEEHLKAIQDYLSTQLLLDSDFLKTGSSNLPHLKKLMSLLCKELHGEVIRTLPSLESLQRLFDQQLSPGLRPRPQVPGEASPITMVAKLSQLTSLLSSIEDKVKSLLHEGSESTNRRSLIPPVTFEVKSESLGIPQKMHLKVDVESGKLIVKKSKDGSEDKFYSHKKILQLIKSQKFLNKLVILVETEKEKILRKEYVFADSKKREGFCQLLQQMKNKHSEQPEPDMITIFIGTWNMGNAPPPKKITSWFLSKGQGKTRDDSADYIPHDIYVIGTQEDPLGEKEWLELLRHSLQEVTSMTFKTVAIHTLWNIRIVVLAKPEHENRISHICTDNVKTGIANTLGNKGAVGVSFMFNGTSLGFVNSHLTSGSEKKLRRNQNYMNILRFLALGDKKLSPFNITHRFTHLFWLGDLNYRVELPTWEAEAIIQKIKQQQYSDLLAHDQLLLERKDQKVFLHFEEEEITFAPTYRFERLTRDKYAYTKQKATGMKYNLPSWCDRVLWKSYPLVHVVCQSYGSTSDIMTSDHSPVFATFEAGVTSQFVSKNGPGTVDSQGQIEFLACYATLKTKSQTKFYLEFHSSCLESFVKSQEGENEEGSEGELVVRFGETLPKLKPIISDPEYLLDQHILISIKSSDSDESYGEGCIALRLETTEAQHPIYTPLTHHGEMTGHFRGEIKLQTSQGKMREKLYDFVKTERDESSGMKCLKNLTSHDPMRQWEPSGRVPACGVSSLNEMINPNYIGMGPFGQPLHGKSTLSPDQQLTAWSYDQLPKDSSLGPGRGEGPPTPPSQPPLSPKKFSSSTANRGPCPRVQEARPGDLGKVEALLQEDLLLTKPEMFENPLYGSVSSFPKLVPRKEQESPKMLRKEPPPCPDPGISSPSIVLPKAQEVESVKGTSKQAPVPVLGPTPRIRSFTCSSSAEGRMTSGDKSQGKPKASASSQAPVPVKRPVKPSRSEMSQQTTPIPAPRPPLPVKSPAVLQLQHSKGRDYRDNTELPHHGKHRQEEGLLGRTAMQ"}, "B2": {"name": "Pl(3,4,5)P3 5-phosphatase 2 (enzyme, UniProt Q6P549 1-1257)", "chain": "MASVCGTPSPGGALGSPAPAWYHRDLSRAAAEELLARAGRDGSFLVRDSESVAGAFALCVLYQKHVHTYRILPDGEDFLAVQTSQGVPVRRFQTLGELIGLYAQPNQGLVCALLLPVEGEREPDPPDDRDASDVEDEKPPLPPRSGSTSISAPVGPSSPLPTPETPTTPAAESTPNGLSTVSHEYLKGSYGLDLEAVRGGASNLPHLTRTLVTSCRRLHSEVDKVLSGLEILSKVFDQQSSPMVTRLLQQQSLPQTGEQELESLVLKLSVLKDFLSGIQKKALKALQDMSSTAPPAPLQPSIRKAKTIPVQAFEVKLDVTLGDLTKIGKSQKFTLSVDVEGGRLVLLRRQRDSQEDWTTFTHDRIRQLIKSQRVQNKLGVVFEKEKDRTQRKDFIFVSARKREAFCQLLQLMKNRHSKQDEPDMISVFIGTWNMGSVPPPKNVTSWFTSKGLGKALDEVTVTIPHDIYVFGTQENSVGDREWLDLLRGGLKELTDLDYRPIAMQSLWNIKVAVLVKPEHENRISHVSTSSVKTGIANTLGNKGAVGVSFMFNGTSFGFVNCHLTSGNEKTTRRNQNYLDILRLLSLGDRQLSAFDISLRFTHLFWFGDLNYRLDMDIQEILNYISRREFEPLLRVDQLNLEREKHKVFLRFSEEEISFPPTYRYERGSRDTYAWHKQKPTGVRTNVPSWCDRILWKSYPETHIICNSYGCTDDIVTSDHSPVFGTFEVGVTSQFISKKGLSKTSDQAYIEFESIEAIVKTASRTKFFIEFYSTCLEEYKKSFENDAQSSDNINFLKVQWSSRQLPTLKPILADIEYLQDQHLLLTVKSMDGYESYGECVVALKSMIGSTAQQFLTFLSHRGEETGNIRGSMKVRVPTERLGTRERLYEWISIDKDDTGAKSKVPSVSRGSQEHRSGSRKPASTETSCPLSKLFEEPEKPPPTGRPPAPPRAVPREEPLNPRLKSEGTSEQEGVAAPPPKNSFNNPAYYVLEGVPHQLLPLEPPSLARAPLPPATKNKVAITVPAPQLGRHRTPRVGEGSSSDEDSGGTLPPPDFPPPPLPDSAIFLPPNLDPLSMPVVRGRSGGEARGPPPPKAHPRPPLPPGTSPASTFLGEVASGDDRSCSVLQMAKTLSEVDYAPGPGRSALLPNPLELQPPRGPSDYGRPLSFPPPRIRESIQEDLAEEAPCPQGGRASGLGEAGMGAWLRAIGLERYEEGLVHNGWDDLEFLSDITEEDLEEAGVQDPAHKRLLLDTLQLSK"}}, "note": "These are yes or no findings as the source states them, for the method shown. Binding seen in cells or lysates may run through a third protein. Some results given as binding are weak or reduced against the parent protein; the word gives no strength."}
{"target": "endogenous PSTPIP1 (mouse (endogenous in osteoclasts)) (UniProt P97814)", "test": "co-IP; endogenous PSTPIP1 immunoprecipitated from osteoclast lysate (1% NP-40, 0.1% deoxycholate, 150 mM NaCl) with specific antibody and Protein G-sepharose, 4°C; western blotting"}
{"molecule": "Tyrosine-protein phosphatase non-receptor type 6 (from UniProt P29351-1 1-595) (enzyme)", "binding": "binds"}
{"molecule": "B1", "binding": "binds"}
{"molecule": "B2", "binding": "binds"}
